Results are given in words; binding and its absence hold for the method and conditions named. Binding seen in cells or lysates may run through a third protein. Binding calls can cover weak binding; strength is not graded here.
Molecular target: CD2-associated protein (CD2AP) (human) (UniProt Q9Y5K6)
Assay: co-IP; endosomal protein lysates (non-denatured solubilisation reagent) of APPKO HEK293 cells transfected with APP_(swe695), APP_(K612Q) or APP_(K612T) plasmids; antibody and Protein A agarose beads, 4 °C overnight, washed 3 times with PBS, Western blot; which protein was precipitated not given

Chains of the proteins cited; added tags and fusions are not shown.
UniProt Q9Y5K6: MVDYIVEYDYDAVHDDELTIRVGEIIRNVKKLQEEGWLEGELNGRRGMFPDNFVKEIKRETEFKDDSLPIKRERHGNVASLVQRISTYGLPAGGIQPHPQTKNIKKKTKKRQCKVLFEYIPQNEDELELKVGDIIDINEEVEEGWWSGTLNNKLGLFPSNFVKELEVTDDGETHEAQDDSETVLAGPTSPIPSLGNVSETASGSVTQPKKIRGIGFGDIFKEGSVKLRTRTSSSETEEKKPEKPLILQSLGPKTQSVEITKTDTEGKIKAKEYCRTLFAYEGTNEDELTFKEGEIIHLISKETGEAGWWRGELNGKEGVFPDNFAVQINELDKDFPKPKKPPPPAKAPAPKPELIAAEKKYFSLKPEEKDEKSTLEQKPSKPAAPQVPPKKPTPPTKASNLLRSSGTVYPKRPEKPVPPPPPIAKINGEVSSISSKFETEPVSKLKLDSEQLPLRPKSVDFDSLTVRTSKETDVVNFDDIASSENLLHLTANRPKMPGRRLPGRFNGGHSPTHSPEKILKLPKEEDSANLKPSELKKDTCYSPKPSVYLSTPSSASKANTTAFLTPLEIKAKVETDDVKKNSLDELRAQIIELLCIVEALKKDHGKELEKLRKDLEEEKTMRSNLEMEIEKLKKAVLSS

Row | binding | Substance
1 | binds | APP_(K612Q) (delactylation-mimicking mutant of APP_(swe695)) (from UniProt P05067-4)
2 | binds | APP_(K612T) (lactyl-mimicking mutant of APP_(swe695)) (from UniProt P05067-4)

Source: publication PMC11684803
